Experimental data reported in publication PMC7179445, “Anticancer Activities of Newly Synthesized Chiral Macrocyclic Heptapeptide Candidates” (Molecules, 2020).

Assays:
MCF-7 cells = experiment: cells; format: cell-based; details: Homo sapiens, MCF7; breast cancer cell line MCF-7; MTT assay, RPMI 1640, 72 h incubation, absorbance 570 nm; mean ± SD, triplicates; read-out: IC50 (compound concentration required to inhibit the cell viability by 50%), MCF-7
Method: (§1) The cytotoxic effects of the prepared compounds on MCF-7 and HepG2 cells were investigated with the help of standard MTT assay. […] Plates were then further incubated for 72 h. Afterwards, 20 μL of MTT (5 mg/mL in PBS) were pipetted to the wells and incubated for another 4 h. The medium was then aspirated and 100 μL DMSO were added/well. Absorbance was read using a microplate reader at 570 nm. IC50 values, used to compare compound toxicity with control cells, were obtained from linear regression of the dose–response curve using Origin® 6.1 software (OriginLab Corporation, Northampton, MA, USA). Experiments were performed in triplicates, and tamoxifen and cisplatin were used as positive control. Data were represented as mean ± SD.

HepG2 cells = experiment: cells; format: cell-based; details: Homo sapiens; hepatocellular cancer cell line HepG2; MTT assay, RPMI 1640, 72 h incubation, absorbance 570 nm; mean ± SD, triplicates; read-out: IC50 (compound concentration required to inhibit the cell viability by 50%), HepG-2
Method: as §1

IC50 (MCF-7 cells): 22.4 ± 2.41 µM
IC50 (HepG2 cells): 29.3 ± 1.15 µM
SMILES: CC/C(=C(\c1ccccc1)c1ccc(OCCN(C)C)cc1)c1ccccc1 [Tamoxifen, reference compound]
